According to article PMC6831621, “Structural Insight Into Chitin Degradation and Thermostability of a Novel Endochitinase From the Glycoside Hydrolase Family 18” (Frontiers in Microbiology, 2019):
These are yes or no findings as the source states them, for the method shown.

Molecular target: Chi23, GH18 endochitinase from Pseudoalteromonas aurantia DSM6057 (Pseudoalteromonas aurantia DSM6057)
Experiment: SEC; gel filtration of recombinant Chi23 beside the size markers carbonic anhydrase (29 kDa) and ovalbumin (44 kDa); calculated monomer mass 30.4 kDa; both purified

B1: Chi23, GH18 endochitinase from Pseudoalteromonas aurantia DSM6057 (enzyme, UniProt A0A650AJ72 1-280)
chain: MSKTITYYNSGAVPLINASELPYDVVNLAFLSSSSNNPFNLVLSGAIAATESSFTTNTIEAIKVMQHKGQKVLISFGGGTMGSNAYRSLSEDTAKLADSLASFVKNNQLDGVDIDYEDTAAFTGQAGYDGAQFLISLTQELRKRLPSPDYIISHAPQPPYLEQGGYMAGYVEVVELVGQEIDWLNVQFYNNPPWSANPDQIVSSYLNYTKLPNMSPEKVIAGFPVTQNDAGSGYMPVQTIINEVIKPIQQQSSLGGIMNWQFSSDHNGDWIKAIAQSLNS
  binding: no binding
